Record: PubChem BioAssay AID1259405 (NCATS, 2018)
In all, the deposit lists about 50,000 reagents; shown is a part drawn at random. Over the whole deposit, about 4,000 (8%) got an active call. 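Mouse siRNA library applied to hamster cells; one well for each siRNA.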 Unmarked entries are inactive. Reagents against one gene are numbered here.

Assay: 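Mouse-designed siRNAs used to find CHO productivity engineering targets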 (primary screen)
Cells: Chinese hamster CHO-K1 ovary cells with stable secreted eGFP expression
Reagent: single siRNA against mouse genes, 0.8 pmol siRNA per well (2 µl of 400 nM stock)
Duration: 3 days
Measurement: 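Percent of the per-plate non-targeting control median for intracellular GFP per well by laser scanning cytometry and for cell viability by ATP luminescence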
Direction: GFP, % of control: higher = more GFP per well, higher productivity; viability (ATP), % of control: higher = more viable cells (more ATP)
Rule for the call: 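Called active when intracellular GFP, relative to negative control, is at or above 120%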

{"gene knocked down":"Parp16 (poly (ADP-ribose) polymerase family, member 16)","reagent no.":1,"GFP, % of control":49.5,"viability (ATP), % of control":76.5}
{"gene knocked down":"Parp16 (poly (ADP-ribose) polymerase family, member 16)","reagent no.":2,"GFP, % of control":90.1,"viability (ATP), % of control":107}
{"gene knocked down":"Parp16 (poly (ADP-ribose) polymerase family, member 16)","reagent no.":3,"GFP, % of control":68.3,"viability (ATP), % of control":103}
{"gene knocked down":"Jpt2 (Jupiter microtubule associated homolog 2)","reagent no.":1,"GFP, % of control":58.8,"viability (ATP), % of control":81.9}
{"gene knocked down":"Jpt2 (Jupiter microtubule associated homolog 2)","reagent no.":2,"GFP, % of control":71.5,"viability (ATP), % of control":63.9}
{"gene knocked down":"Jpt2 (Jupiter microtubule associated homolog 2)","reagent no.":3,"GFP, % of control":37.8,"viability (ATP), % of control":63.4}
{"gene knocked down":"Rccd1 (RCC1 domain containing 1)","reagent no.":1,"GFP, % of control":70.9,"viability (ATP), % of control":81.6}
{"gene knocked down":"Rccd1 (RCC1 domain containing 1)","reagent no.":2,"GFP, % of control":89.7,"viability (ATP), % of control":87.8}
{"gene knocked down":"Rccd1 (RCC1 domain containing 1)","reagent no.":3,"GFP, % of control":86.5,"viability (ATP), % of control":71.5}
{"gene knocked down":"Vmn1r235 (vomeronasal 1 receptor 235)","reagent no.":1,"GFP, % of control":103,"viability (ATP), % of control":69.1}
{"gene knocked down":"Vmn1r235 (vomeronasal 1 receptor 235)","reagent no.":2,"GFP, % of control":95.7,"viability (ATP), % of control":95.2}
{"gene knocked down":"Vmn1r235 (vomeronasal 1 receptor 235)","reagent no.":3,"GFP, % of control":37.4,"viability (ATP), % of control":48.7}
{"gene knocked down":"Hoxa7 (homeobox A7)","reagent no.":1,"GFP, % of control":"126 (active)","viability (ATP), % of control":87.8}
{"gene knocked down":"Hoxa7 (homeobox A7)","reagent no.":2,"GFP, % of control":38.3,"viability (ATP), % of control":47}
{"gene knocked down":"Hoxa7 (homeobox A7)","reagent no.":3,"GFP, % of control":80.8,"viability (ATP), % of control":95.6}
{"gene knocked down":"D3Ertd751e (DNA segment, Chr 3, ERATO Doi 751, expressed)","reagent no.":1,"GFP, % of control":95.8,"viability (ATP), % of control":76.6}
{"gene knocked down":"D3Ertd751e (DNA segment, Chr 3, ERATO Doi 751, expressed)","reagent no.":2,"GFP, % of control":79.8,"viability (ATP), % of control":66.1}
{"gene knocked down":"D3Ertd751e (DNA segment, Chr 3, ERATO Doi 751, expressed)","reagent no.":3,"GFP, % of control":85.6,"viability (ATP), % of control":90.8}
{"gene knocked down":"Spata4 (spermatogenesis associated 4)","reagent no.":1,"GFP, % of control":110,"viability (ATP), % of control":91.9}
{"gene knocked down":"Spata4 (spermatogenesis associated 4)","reagent no.":2,"GFP, % of control":51.1,"viability (ATP), % of control":79.3}
{"gene knocked down":"Spata4 (spermatogenesis associated 4)","reagent no.":3,"GFP, % of control":78.8,"viability (ATP), % of control":84.6}
{"gene knocked down":"Hdac1 (histone deacetylase 1)","reagent no.":1,"GFP, % of control":63.7,"viability (ATP), % of control":78.3}
{"gene knocked down":"Hdac1 (histone deacetylase 1)","reagent no.":2,"GFP, % of control":92.3,"viability (ATP), % of control":78.9}
{"gene knocked down":"Lsm3","reagent no.":1,"GFP, % of control":"122 (active)","viability (ATP), % of control":114}
{"gene knocked down":"Lsm3","reagent no.":2,"GFP, % of control":75.9,"viability (ATP), % of control":70.8}
{"gene knocked down":"Lsm3","reagent no.":3,"GFP, % of control":67.9,"viability (ATP), % of control":54.4}
{"gene knocked down":"Polr2k (polymerase (RNA) II (DNA directed) polypeptide K)","reagent no.":1,"GFP, % of control":34.5,"viability (ATP), % of control":38.4}
{"gene knocked down":"Polr2k (polymerase (RNA) II (DNA directed) polypeptide K)","reagent no.":2,"GFP, % of control":77.3,"viability (ATP), % of control":100}
{"gene knocked down":"Entpd1 (ectonucleoside triphosphate diphosphohydrolase 1)","reagent no.":1,"GFP, % of control":76.1,"viability (ATP), % of control":80.6}
{"gene knocked down":"Entpd1 (ectonucleoside triphosphate diphosphohydrolase 1)","reagent no.":2,"GFP, % of control":107,"viability (ATP), % of control":82.9}
{"gene knocked down":"Entpd1 (ectonucleoside triphosphate diphosphohydrolase 1)","reagent no.":3,"GFP, % of control":106,"viability (ATP), % of control":88.9}
{"gene knocked down":"Or51ab3 (olfactory receptor family 51 subfamily AB member 3)","reagent no.":1,"GFP, % of control":"165 (active)","viability (ATP), % of control":55.7}
{"gene knocked down":"Or51ab3 (olfactory receptor family 51 subfamily AB member 3)","reagent no.":2,"GFP, % of control":77.8,"viability (ATP), % of control":85.1}
{"gene knocked down":"Or51ab3 (olfactory receptor family 51 subfamily AB member 3)","reagent no.":3,"GFP, % of control":67.5,"viability (ATP), % of control":59.5}
{"gene knocked down":"Ctif (CBP80/20-dependent translation initiation factor)","reagent no.":1,"GFP, % of control":76.2,"viability (ATP), % of control":74.8}
{"gene knocked down":"Ctif (CBP80/20-dependent translation initiation factor)","reagent no.":2,"GFP, % of control":73.1,"viability (ATP), % of control":103}
{"gene knocked down":"Ctif (CBP80/20-dependent translation initiation factor)","reagent no.":3,"GFP, % of control":84.5,"viability (ATP), % of control":70.4}
{"gene knocked down":"Krt222 (keratin 222)","reagent no.":1,"GFP, % of control":72.8,"viability (ATP), % of control":66.5}
{"gene knocked down":"Krt222 (keratin 222)","reagent no.":2,"GFP, % of control":54.9,"viability (ATP), % of control":65.7}
{"gene knocked down":"Krt222 (keratin 222)","reagent no.":3,"GFP, % of control":79.7,"viability (ATP), % of control":60.8}
{"gene knocked down":"Ptprf (protein tyrosine phosphatase receptor type F)","reagent no.":1,"GFP, % of control":"177 (active)","viability (ATP), % of control":111}
{"gene knocked down":"Ptprf (protein tyrosine phosphatase receptor type F)","reagent no.":2,"GFP, % of control":72.1,"viability (ATP), % of control":65.7}
{"gene knocked down":"Ptprf (protein tyrosine phosphatase receptor type F)","reagent no.":3,"GFP, % of control":88.8,"viability (ATP), % of control":112}
{"gene knocked down":"Klf9 (Kruppel-like transcription factor 9)","reagent no.":1,"GFP, % of control":53.5,"viability (ATP), % of control":60.2}
{"gene knocked down":"Klf9 (Kruppel-like transcription factor 9)","reagent no.":2,"GFP, % of control":76,"viability (ATP), % of control":71.2}
{"gene knocked down":"Cd27 (CD27 antigen)","reagent no.":1,"GFP, % of control":72.1,"viability (ATP), % of control":120}
{"gene knocked down":"Cd27 (CD27 antigen)","reagent no.":2,"GFP, % of control":36.6,"viability (ATP), % of control":50.1}
{"gene knocked down":"Cd27 (CD27 antigen)","reagent no.":3,"GFP, % of control":74.2,"viability (ATP), % of control":64.6}
{"gene knocked down":"Ndufb11 (NADH:ubiquinone oxidoreductase subunit B11)","reagent no.":1,"GFP, % of control":97.9,"viability (ATP), % of control":51}
{"gene knocked down":"Ndufb11 (NADH:ubiquinone oxidoreductase subunit B11)","reagent no.":2,"GFP, % of control":83.5,"viability (ATP), % of control":88.4}
{"gene knocked down":"Ndufb11 (NADH:ubiquinone oxidoreductase subunit B11)","reagent no.":3,"GFP, % of control":118,"viability (ATP), % of control":65.1}
{"gene knocked down":"Gosr1 (golgi SNAP receptor complex member 1)","reagent no.":1,"GFP, % of control":71.2,"viability (ATP), % of control":75.7}
{"gene knocked down":"Gosr1 (golgi SNAP receptor complex member 1)","reagent no.":2,"GFP, % of control":41.1,"viability (ATP), % of control":43.1}
{"gene knocked down":"Gosr1 (golgi SNAP receptor complex member 1)","reagent no.":3,"GFP, % of control":80.4,"viability (ATP), % of control":64.8}
